Experimental data: the supplement of paper PMC10849652
The list shows a part of the results.

Chains of the proteins cited; added tags and fusions are not shown. Lines headed by an entry give the natural chain unless they say otherwise; changes in a name come on top.
UniProt Q15393: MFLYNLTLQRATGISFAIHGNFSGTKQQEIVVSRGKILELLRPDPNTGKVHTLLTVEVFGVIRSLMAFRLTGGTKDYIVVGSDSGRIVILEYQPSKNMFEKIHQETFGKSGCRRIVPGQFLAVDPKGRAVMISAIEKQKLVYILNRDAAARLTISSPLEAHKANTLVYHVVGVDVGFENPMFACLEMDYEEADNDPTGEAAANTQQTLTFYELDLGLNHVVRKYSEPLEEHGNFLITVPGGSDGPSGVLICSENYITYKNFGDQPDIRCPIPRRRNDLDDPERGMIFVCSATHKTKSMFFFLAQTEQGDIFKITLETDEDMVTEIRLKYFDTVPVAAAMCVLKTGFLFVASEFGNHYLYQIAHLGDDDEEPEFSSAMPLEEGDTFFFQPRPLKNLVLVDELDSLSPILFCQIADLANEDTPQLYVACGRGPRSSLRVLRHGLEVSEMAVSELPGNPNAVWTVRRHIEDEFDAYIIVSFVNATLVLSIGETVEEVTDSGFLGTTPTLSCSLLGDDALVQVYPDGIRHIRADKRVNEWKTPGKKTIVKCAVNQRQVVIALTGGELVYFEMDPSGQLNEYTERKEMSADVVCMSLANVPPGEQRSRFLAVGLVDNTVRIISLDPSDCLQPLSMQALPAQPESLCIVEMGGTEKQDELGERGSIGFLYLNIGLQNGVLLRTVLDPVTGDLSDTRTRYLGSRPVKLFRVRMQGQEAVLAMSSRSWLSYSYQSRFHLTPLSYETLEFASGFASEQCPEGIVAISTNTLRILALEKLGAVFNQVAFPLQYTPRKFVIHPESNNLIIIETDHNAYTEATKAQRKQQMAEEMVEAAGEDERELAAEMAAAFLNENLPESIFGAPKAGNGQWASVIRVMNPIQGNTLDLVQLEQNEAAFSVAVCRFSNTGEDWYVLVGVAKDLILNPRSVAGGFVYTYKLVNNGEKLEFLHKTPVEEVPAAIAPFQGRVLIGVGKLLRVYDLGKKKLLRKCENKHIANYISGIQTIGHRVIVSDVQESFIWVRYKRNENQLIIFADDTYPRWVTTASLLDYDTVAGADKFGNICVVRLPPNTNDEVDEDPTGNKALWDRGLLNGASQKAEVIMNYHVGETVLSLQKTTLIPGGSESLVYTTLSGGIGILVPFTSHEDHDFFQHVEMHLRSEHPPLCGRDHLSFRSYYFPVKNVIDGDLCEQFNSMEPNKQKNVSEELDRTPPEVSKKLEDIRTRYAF
UniProt Q9Y3B4: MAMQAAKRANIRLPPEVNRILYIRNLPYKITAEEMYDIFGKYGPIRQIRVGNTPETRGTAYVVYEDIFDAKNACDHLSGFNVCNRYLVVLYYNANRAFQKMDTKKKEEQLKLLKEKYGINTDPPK
UniProt Q9Y3L3: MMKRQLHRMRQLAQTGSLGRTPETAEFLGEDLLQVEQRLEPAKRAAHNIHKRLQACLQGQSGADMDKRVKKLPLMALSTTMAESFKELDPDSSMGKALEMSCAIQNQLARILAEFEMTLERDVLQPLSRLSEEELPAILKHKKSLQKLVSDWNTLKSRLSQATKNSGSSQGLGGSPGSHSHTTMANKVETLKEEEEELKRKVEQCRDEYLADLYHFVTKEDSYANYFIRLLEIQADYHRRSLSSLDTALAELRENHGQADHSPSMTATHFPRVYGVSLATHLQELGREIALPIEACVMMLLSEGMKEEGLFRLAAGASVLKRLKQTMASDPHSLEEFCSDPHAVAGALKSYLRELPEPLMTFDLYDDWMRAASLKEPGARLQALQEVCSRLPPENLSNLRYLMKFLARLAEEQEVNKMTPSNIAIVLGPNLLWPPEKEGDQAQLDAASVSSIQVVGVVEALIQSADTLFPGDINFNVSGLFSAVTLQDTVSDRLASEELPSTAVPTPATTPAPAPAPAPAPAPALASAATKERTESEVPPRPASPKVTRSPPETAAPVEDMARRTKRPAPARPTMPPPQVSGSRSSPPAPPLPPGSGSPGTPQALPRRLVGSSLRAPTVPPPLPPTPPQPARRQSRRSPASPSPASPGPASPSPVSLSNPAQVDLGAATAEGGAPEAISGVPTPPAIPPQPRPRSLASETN
UniProt Q12874: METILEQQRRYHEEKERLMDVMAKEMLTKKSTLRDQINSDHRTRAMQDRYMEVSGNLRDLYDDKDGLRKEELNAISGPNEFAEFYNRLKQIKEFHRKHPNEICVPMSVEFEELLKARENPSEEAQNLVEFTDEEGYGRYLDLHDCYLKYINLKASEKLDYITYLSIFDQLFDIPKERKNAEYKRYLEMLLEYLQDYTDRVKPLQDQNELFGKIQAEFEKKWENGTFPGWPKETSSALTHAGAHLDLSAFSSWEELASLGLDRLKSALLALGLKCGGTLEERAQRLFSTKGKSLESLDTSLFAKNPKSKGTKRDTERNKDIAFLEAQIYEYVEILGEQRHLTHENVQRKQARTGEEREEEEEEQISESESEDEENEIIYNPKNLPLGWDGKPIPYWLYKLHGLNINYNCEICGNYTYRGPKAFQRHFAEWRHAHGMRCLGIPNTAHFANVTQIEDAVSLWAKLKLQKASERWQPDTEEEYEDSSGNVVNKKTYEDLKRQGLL
UniProt P30740: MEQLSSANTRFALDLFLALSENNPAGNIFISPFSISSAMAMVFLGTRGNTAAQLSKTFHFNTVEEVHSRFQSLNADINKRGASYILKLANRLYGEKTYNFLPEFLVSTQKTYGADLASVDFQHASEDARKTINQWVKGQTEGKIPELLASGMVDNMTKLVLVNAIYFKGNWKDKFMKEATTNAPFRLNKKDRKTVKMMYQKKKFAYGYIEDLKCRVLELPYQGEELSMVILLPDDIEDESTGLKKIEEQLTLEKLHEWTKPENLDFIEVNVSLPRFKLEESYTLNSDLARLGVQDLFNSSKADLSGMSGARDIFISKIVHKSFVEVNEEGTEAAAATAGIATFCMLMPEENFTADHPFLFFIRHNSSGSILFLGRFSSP
UniProt Q8NEM2: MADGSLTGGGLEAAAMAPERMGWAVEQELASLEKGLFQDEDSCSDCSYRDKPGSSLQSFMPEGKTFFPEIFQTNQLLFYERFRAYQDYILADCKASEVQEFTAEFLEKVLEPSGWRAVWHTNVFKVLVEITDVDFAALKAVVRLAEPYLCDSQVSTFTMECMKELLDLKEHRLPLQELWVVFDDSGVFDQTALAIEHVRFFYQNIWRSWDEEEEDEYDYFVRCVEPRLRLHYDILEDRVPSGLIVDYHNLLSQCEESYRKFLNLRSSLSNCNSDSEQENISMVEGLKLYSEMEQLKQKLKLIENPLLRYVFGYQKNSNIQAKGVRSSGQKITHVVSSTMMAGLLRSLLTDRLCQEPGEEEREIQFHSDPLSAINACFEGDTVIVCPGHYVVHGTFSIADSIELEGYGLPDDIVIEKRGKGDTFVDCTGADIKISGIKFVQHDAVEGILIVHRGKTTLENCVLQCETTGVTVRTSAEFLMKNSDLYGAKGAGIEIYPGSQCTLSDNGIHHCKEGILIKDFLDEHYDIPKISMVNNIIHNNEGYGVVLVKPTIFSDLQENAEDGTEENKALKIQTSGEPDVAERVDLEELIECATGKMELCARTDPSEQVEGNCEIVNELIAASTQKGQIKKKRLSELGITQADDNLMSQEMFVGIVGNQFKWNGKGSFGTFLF
UniProt O75533, whole entry, looked up: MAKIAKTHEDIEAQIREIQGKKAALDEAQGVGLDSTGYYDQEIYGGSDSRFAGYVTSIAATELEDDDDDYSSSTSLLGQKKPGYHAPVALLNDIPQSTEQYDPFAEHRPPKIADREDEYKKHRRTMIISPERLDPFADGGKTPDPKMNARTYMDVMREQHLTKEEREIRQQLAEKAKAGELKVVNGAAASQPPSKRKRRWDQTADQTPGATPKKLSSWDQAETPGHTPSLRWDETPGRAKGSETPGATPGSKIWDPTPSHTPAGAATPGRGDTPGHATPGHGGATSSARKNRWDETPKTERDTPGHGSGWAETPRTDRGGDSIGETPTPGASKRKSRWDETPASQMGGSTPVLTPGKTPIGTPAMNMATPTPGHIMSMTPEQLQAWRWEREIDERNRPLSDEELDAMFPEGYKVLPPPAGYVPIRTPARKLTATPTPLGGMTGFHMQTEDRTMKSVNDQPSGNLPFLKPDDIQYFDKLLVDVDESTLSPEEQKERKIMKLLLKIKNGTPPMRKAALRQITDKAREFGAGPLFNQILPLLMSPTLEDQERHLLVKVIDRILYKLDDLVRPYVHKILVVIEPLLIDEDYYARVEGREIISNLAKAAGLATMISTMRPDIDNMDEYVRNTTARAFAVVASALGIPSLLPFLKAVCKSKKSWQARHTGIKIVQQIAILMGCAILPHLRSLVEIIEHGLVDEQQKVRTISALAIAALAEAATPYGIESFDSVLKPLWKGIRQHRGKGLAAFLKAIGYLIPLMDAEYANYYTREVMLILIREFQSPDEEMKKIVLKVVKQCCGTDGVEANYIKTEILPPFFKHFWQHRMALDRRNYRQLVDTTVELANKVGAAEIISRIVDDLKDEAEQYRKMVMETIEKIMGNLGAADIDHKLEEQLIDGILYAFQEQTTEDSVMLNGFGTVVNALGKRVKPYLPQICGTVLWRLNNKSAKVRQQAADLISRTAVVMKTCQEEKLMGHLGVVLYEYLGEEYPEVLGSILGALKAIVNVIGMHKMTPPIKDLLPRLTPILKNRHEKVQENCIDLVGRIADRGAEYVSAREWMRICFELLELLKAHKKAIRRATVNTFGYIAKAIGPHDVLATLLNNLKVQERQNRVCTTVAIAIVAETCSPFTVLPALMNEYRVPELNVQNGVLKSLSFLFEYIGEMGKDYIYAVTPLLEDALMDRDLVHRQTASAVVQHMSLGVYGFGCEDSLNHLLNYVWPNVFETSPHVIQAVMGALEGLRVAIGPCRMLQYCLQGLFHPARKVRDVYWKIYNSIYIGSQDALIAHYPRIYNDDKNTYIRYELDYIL
UniProt Q96EB6: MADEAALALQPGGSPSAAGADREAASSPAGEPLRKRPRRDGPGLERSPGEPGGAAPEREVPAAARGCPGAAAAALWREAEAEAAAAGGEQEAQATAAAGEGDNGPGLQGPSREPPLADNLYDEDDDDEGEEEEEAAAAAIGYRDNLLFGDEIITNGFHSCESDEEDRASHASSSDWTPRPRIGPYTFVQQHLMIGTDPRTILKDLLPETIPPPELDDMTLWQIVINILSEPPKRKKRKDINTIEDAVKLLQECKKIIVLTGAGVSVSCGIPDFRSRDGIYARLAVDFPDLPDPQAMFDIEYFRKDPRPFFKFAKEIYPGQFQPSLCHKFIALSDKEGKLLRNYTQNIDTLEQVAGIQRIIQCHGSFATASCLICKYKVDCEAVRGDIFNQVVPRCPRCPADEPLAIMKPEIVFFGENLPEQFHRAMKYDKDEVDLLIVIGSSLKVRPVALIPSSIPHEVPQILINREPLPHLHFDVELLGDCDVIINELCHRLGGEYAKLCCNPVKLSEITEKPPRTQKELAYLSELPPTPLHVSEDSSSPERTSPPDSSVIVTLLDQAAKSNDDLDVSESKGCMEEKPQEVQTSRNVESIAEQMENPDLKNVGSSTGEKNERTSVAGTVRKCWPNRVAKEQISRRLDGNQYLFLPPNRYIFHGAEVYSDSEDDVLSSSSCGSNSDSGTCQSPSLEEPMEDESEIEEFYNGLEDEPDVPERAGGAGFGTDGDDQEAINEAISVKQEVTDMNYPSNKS
UniProt Q8NBJ9: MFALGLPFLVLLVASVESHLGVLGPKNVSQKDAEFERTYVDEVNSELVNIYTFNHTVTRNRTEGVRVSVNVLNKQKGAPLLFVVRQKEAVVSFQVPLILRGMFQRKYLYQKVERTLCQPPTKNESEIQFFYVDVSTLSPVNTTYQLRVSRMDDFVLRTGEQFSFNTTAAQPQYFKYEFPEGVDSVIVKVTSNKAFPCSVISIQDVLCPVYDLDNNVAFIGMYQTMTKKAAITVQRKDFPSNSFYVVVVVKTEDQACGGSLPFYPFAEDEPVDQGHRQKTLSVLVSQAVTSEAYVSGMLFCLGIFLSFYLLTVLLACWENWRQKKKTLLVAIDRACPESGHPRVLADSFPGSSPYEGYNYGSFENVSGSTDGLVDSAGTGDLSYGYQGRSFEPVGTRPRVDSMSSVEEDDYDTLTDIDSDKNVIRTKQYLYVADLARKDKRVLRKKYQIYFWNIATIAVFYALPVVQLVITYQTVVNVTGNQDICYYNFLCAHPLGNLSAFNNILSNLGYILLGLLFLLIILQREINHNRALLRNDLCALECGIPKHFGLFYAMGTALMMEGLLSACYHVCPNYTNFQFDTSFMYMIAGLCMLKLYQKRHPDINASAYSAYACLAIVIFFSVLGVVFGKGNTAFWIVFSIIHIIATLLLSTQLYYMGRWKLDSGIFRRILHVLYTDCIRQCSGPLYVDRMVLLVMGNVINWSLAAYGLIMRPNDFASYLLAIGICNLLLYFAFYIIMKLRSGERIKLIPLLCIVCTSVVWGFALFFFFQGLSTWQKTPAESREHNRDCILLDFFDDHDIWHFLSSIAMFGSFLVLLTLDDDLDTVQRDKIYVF
UniProt Q9H299: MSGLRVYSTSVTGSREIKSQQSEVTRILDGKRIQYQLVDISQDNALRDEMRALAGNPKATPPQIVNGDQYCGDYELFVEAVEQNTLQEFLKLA

Compound: CC1=C2C(=CC=C1)N=C(N(C2=O)C3=CC=CC=C3C)CN4C=NC5=C(N=CN=C54)N
Assay: log2 fold change, soluble protein after heating vs DMSO (PISA); higher = thermal stabilisation; K562 lysate, 10 uM; active = over 0.2 and 3.5 SD of the protein, either way, in both replicates (recomputed)
How it was run: (§1)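 Pellets of K562 cells were dounce-homogenised in PBS pH 7.4 with 1 mM MgCl2, and the crude extract was held at 1 mg/mL protein for a 30 min treatment with 10 μM compound. Aliquots were heated for 3 min over 48°C-58°C and pooled before NP-40 was added to 0.5% at 4°C. The supernatant from 21,000xg for 90 min was quantified by TMTpro 16plex LC-MS/MS with channel sums equalised. Values are reported from duplicates as log-two fold change in thermal stability relative to solvent controls.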

Target | log2 fold change
SHPRH (UniProt Q149N8) | inactive: 0.274
SF3B3 (UniProt Q15393) | inactive: 0.012
SF3B6 (UniProt Q9Y3B4) | inactive: -0.184
SLC1A4 (UniProt P43007) | inactive: 0.01
SLC16A1 (UniProt P53985) | inactive: 0.042
SH3BP1 (UniProt Q9Y3L3) | inactive: 0.093
SF1 isoform 5 (UniProt Q15637) | inactive: -0.006
SF3A3 (UniProt Q12874) | inactive: -0.006
SERPINB1 (UniProt P30740) | inactive: -0.001
SHCBP1 (UniProt Q8NEM2) | inactive: -0.032
SERPINF1 (UniProt P36955) | inactive: 0.025
SF3B1 (UniProt O75533) | inactive: 0.011
SKA3 (UniProt Q8IX90) | inactive: -0.009
SIRT1 (UniProt Q96EB6) | inactive: 0.016
SFR1 isoform 2 (UniProt Q86XK3) | inactive: -0.01
SIDT2 isoform 2 (UniProt Q8NBJ9) | inactive: 0.016

Compound: Cc1sc2c(c1C)C(c1ccc(Cl)cc1)=N[C@@H](CC(=O)OC(C)(C)C)c1nnc(C)n1-2
Assay: as above
How it was run: as §1

Target | log2 fold change
SF3B4 (UniProt Q15427) | inactive: -0.024
SHROOM1 (UniProt Q2M3G4) | inactive: 0.013
SFSWAP isoform 2 (UniProt Q12872) | inactive: 0.002
SESN2 (UniProt P58004) | inactive: -0.004
SH3BP5L (UniProt Q7L8J4) | inactive: 0.01
SKA1 (UniProt Q96BD8) | inactive: -0.018
SH3GL1 (UniProt Q99961) | inactive: 0.012
SGTA (UniProt O43765) | inactive: 0.014
SERPINB9 (UniProt P50453) | inactive: 0.002
SETD3 (UniProt Q86TU7) | inactive: -0.008
SEPTIN9 (UniProt Q9UHD8) | inactive: -0.007
SERPINI1 (UniProt Q99574) | inactive: -0.011
SLC12A6 (UniProt Q9UHW9) | inactive: 0.036
SHMT2 (UniProt P34897) | inactive: 0.008
SH2D2A isoform 2 (UniProt Q9NP31) | inactive: 0
SIKE1 (UniProt Q9BRV8) | inactive: 0.004
SIRT5 (UniProt Q9NXA8) | inactive: 0.028
SGPP1 (UniProt Q9BX95) | inactive: -0.042
SERBP1 (UniProt Q8NC51) | inactive: 0.017
SERINC1 (UniProt Q9NRX5) | inactive: -0.098

Target | log2 fold change
SHMT1 (UniProt P34896) | inactive: -0.014
SETD1A (UniProt O15047) | inactive: -0.038
SH3BGRL3 (UniProt Q9H299) | inactive: -0.041
SHPRH (UniProt Q149N8) | inactive: 0.061
SF3B3 (UniProt Q15393) | inactive: -0.003
SF3B6 (UniProt Q9Y3B4) | inactive: 0.014
SLC1A4 (UniProt P43007) | inactive: -0.011
SLC16A1 (UniProt P53985) | inactive: 0.077
SH3BP1 (UniProt Q9Y3L3) | inactive: 0.011
SF1 isoform 5 (UniProt Q15637) | inactive: 0.023
SF3A3 (UniProt Q12874) | inactive: -0.01
SERPINB1 (UniProt P30740) | inactive: 0.027
SHCBP1 (UniProt Q8NEM2) | inactive: -0.022
SERPINF1 (UniProt P36955) | inactive: -0.026
SF3B1 (UniProt O75533) | inactive: -0.008
SKA3 (UniProt Q8IX90) | inactive: -0.016
SIRT1 (UniProt Q96EB6) | inactive: -0.006
SFR1 isoform 2 (UniProt Q86XK3) | inactive: 0
SIDT2 isoform 2 (UniProt Q8NBJ9) | inactive: 0.028

Compound: c1ccc([C@@H]2C[C@H]2NC2CCNCC2)cc1
Assay: as above
How it was run: as §1

Target | log2 fold change
SF3B4 (UniProt Q15427) | inactive: -0.092
SHROOM1 (UniProt Q2M3G4) | inactive: 0
SFSWAP isoform 2 (UniProt Q12872) | inactive: 0.012
SESN2 (UniProt P58004) | inactive: -0.01
SH3BP5L (UniProt Q7L8J4) | inactive: -0.024
SKA1 (UniProt Q96BD8) | inactive: 0.018
SH3GL1 (UniProt Q99961) | inactive: 0.003
SGTA (UniProt O43765) | inactive: 0.001
SERPINB9 (UniProt P50453) | inactive: -0.011
SETD3 (UniProt Q86TU7) | inactive: 0.011
SEPTIN9 (UniProt Q9UHD8) | inactive: -0.099
SERPINI1 (UniProt Q99574) | inactive: -0.021
SLC12A6 (UniProt Q9UHW9) | inactive: 0.008
SHMT2 (UniProt P34897) | inactive: 0.008
SH2D2A isoform 2 (UniProt Q9NP31) | inactive: 0.003
SIKE1 (UniProt Q9BRV8) | inactive: 0.027
SIRT5 (UniProt Q9NXA8) | inactive: 0.043
SGPP1 (UniProt Q9BX95) | inactive: 0.061
SERBP1 (UniProt Q8NC51) | inactive: 0.015
SERINC1 (UniProt Q9NRX5) | inactive: -0.116

Target | log2 fold change
SHMT1 (UniProt P34896) | inactive: -0.047
SETD1A (UniProt O15047) | inactive: -0.036
SH3BGRL3 (UniProt Q9H299) | inactive: -0.041
SHPRH (UniProt Q149N8) | inactive: 0.063
SF3B3 (UniProt Q15393) | inactive: 0
SF3B6 (UniProt Q9Y3B4) | inactive: 0
SLC1A4 (UniProt P43007) | inactive: -0.051
SLC16A1 (UniProt P53985) | inactive: -0.245
SH3BP1 (UniProt Q9Y3L3) | inactive: 0
SF1 isoform 5 (UniProt Q15637) | inactive: -0.008
SF3A3 (UniProt Q12874) | inactive: 0.103
SERPINB1 (UniProt P30740) | inactive: 0.02
SHCBP1 (UniProt Q8NEM2) | inactive: -0.039
SERPINF1 (UniProt P36955) | inactive: 0.013
SF3B1 (UniProt O75533) | inactive: 0.015
SKA3 (UniProt Q8IX90) | inactive: -0.02
SIRT1 (UniProt Q96EB6) | inactive: 0.068
SFR1 isoform 2 (UniProt Q86XK3) | inactive: 0.072
SIDT2 isoform 2 (UniProt Q8NBJ9) | inactive: -0.008
